Test results as given in patent US20180256699A1.

Legend:
[1] = biological target: ACT of Bordetella bronchiseptica (Bordetella bronchiseptica); test: ELISA on RTX from different Bordetella species (FIG. 13A)
[2] = biological target: ACT of Bordetella parapertussis (Bordetella parapertussis); test: as above

B1: M1H5 antibody (format not stated) (antibody, V domains shown)
VH: EVNLVESGGDLVKPGGSLKLSCAASGFTFSSYGMSWVRQTPDKRLEWVATISSGGTYTYYPDSVKGRFTISRDNAKNTLYLQMSSLKSEDTAMYYCAREIMRGGGYYFDYWSQGTTLTVSS
VL: DIQMIQSTSSLSASLGDRVTISCRASQDISNYLNWYQQKPDGTVKLLIYYTSRLHSGVPSRFSGSGSGTDYSLTISNLEQEDIATYFCQQGNTLPYTFGGGTKLEIKR
binding [1]: no binding
binding [2]: no binding

These are yes or no findings as the source states them, for the method shown.
